This is an account of results in PubChem BioAssay AID493014 (National Center for Advancing Translational Sciences (NCATS), 2011).

The list shows a part of the results. Shown are side measurements of this screen, not its main read-out; they come without a call. Compounds called inactive in the main read-out are mostly missing here. Potencies come from curve fits of mixed quality, noted in brackets.

This test in a line: qHTS Assay to Find Inhibitors of Chronic Active B-Cell Receptor Signaling. The settings on record: ABC-DLBCL IkBa-CBG/CBR reporter, luminescence ratio (green luciferase fused to IkBa over red control in TMD8 lymphoma cells), 4 h. Summed up:
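Doxycycline induced both beetle luciferases in TMD8 lymphoma cells; IKK-driven degradation limits the IkappaBalpha-fused green signal, while red luminescence normalises for cell number and nonspecific effects. Compounds tested up to 46 uM, 4 hrs.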
(qHTS replaces the single test concentration by a dilution series.)

The mark [1] stands for this setting: measured here: CBR red luminescence, cell number.
Setting [2] is: measured here: IkBa-CBG green luminescence.

Usually AC50 stands for the concentration giving half of the maximal activity seen.

As for `COc1ccc(C(=O)N2CCN(c3ccc(NC(=O)Cc4ccccc4)cc3)CC2)cc1`, under setting [1], the AC50 was 3.98 µM [falling, partial curve, poor fit].

Consider `COc1ccc2c(=O)c3c(=O)n(Cc4ccco4)c(-c4ccco4)nc3oc2c1`, for which the AC50 under setting [1] was 5.8 µM [falling, partial curve, poor fit]. Consider `O=C(CNC(=O)c1ccccc1Cl)N/N=C/c1ccc([N+](=O)[O-])s1`, for which, under setting [1], the AC50 is 29.1 µM [falling, single point]. With `COc1ccc(NC(=O)c2sccc2OS(=O)(=O)N(C)C)cc1`, the AC50 under setting [1] was 14.1 µM [rising, single point]. Take `CN1C(=O)/C(=C/c2ccccc2Cl)Sc2ccc(C(=O)N3CCCC3)cc21`: under setting [1], the concentration at half-maximal activity (AC50) is 10 µM [falling, partial curve, poor fit]. On the same count and under the same terms, next, `Cc1cc(N2CCCCC2)nc(SCC(=O)c2ccccc2)n1`: 17.8 µM [falling, single point]; `O=C(Nc1cccc(S(=O)(=O)N2CCCCC2)c1)C1CCCC1`: 0.164 µM [rising, full curve, poor fit]; `CC(C)(C)CC(=O)Nc1nnc(-c2cccs2)s1`: 0.00461 µM [rising, full curve, poor fit]. `CCN(CC)S(=O)(=O)c1cc(-c2nnc(-c3ccc(Br)cc3)o2)ccc1Br`: the AC50 under setting [1] was 32.6 µM [rising, single point]. In the case of `CS(=O)(=O)N1N=C(c2ccco2)CC1c1ccccc1Cl` (stereo unspecified), the AC50 under setting [1] was 35.5 µM [rising, single point].

Consider `O=C(CSc1nc2ncc(Cl)cc2[nH]1)NCCc1ccc(F)cc1`, for which the AC50 under setting [1] was 12.6 µM [falling, partial curve, poor fit]. For the compound `CSc1ccccc1NC(=O)Cc1ccc(Br)cc1`, the AC50 under setting [1] was 8.2 µM [falling, partial curve].

Turning to `C/C(=N\Nc1cccc(C(=O)O)c1)c1ccc(Cl)s1`, under setting [1], the half-maximal activity concentration (AC50) was 0.141 µM [falling, full curve, poor fit]. As for `O=C(Nc1ccc(Cl)cc1)N1CCCN(Cc2ccccc2F)C1`, the AC50 under setting [1] was 6.51 µM [rising, full curve, poor fit]. Regarding `C/C(=N\NC(=S)Nc1ccccc1C)c1ccc(O)cc1`, the AC50 is 35.5 µM [falling, single point] under setting [1] and 35.5 µM [falling, single point] under setting [2]. Turning to `O=C(NCc1cccc(Cl)c1)c1ccc(-c2csnn2)cc1`, the AC50 under setting [1] is 11.2 µM [falling, partial curve, poor fit]. With `C#CCOCCOCCOCCNc1nc(N2CCN(C(=O)CCCCCCCCCCNC(=O)[C@H](CCCCN)n3cc(CCO)nn3)CC2)nc(N2CCN(C(=O)CCCCCCCCCCNC(=O)[C@H](CCCCN)n3cc(C[C@@H](C)CC)nn3)CC2)n1`, the half-maximal activity concentration (AC50) under setting [1] is 29.1 µM [rising, single point].

In the case of `Cc1ccc(-c2cc(C(=O)N/N=C/c3c(C)nn(C)c3C)c3ccccc3n2)cc1C`, the AC50 under setting [1] is 7.31 µM [rising, partial curve]. The same measure, in the same setting: next, `O=C(NN1CCOCC1)c1cc(-c2cccc(Cl)c2)nc2ccccc12`: 35.5 µM [rising, single point]; `COc1cc(/C=C(/C(=O)c2cccs2)c2nc3ccccc3[nH]2)ccc1O`: 0.891 µM [falling, partial curve, poor fit]. As for `Cc1ccc(Cn2ccc(NC(=O)c3cc(C)on3)n2)cc1`, the AC50 under setting [1] was 0.0651 µM [falling, full curve, poor fit]. For the compound `O=C(Oc1c(-c2ccccc2)c(=O)n2c3c(cccc13)CC2)c1cccc([N+](=O)[O-])c1`, the AC50 under setting [1] is 3.16 µM [falling, partial curve, poor fit]. With `O=S(=O)(NC1CC1)c1ccc(S(=O)(=O)N2CCCC3(CCCCC3)C2)cc1`, the AC50 reads like this: under setting [1], 6.51 µM [falling, single point]; under setting [2], 6.51 µM [rising, partial curve, poor fit].

In the case of `CCCCCCN(C(=O)CCCCCN1C(=O)NC(c2cccc([N+](=O)[O-])c2)C(C(=O)OCc2ccccc2)=C1C)C(C(=O)NCCCC)c1ccc(OCC(=O)OC)c(C(=O)OC)c1` (stereo unspecified), under setting [1], the AC50 is 35.5 µM [falling, single point].

`COc1ccccc1NC1=CC(=O)CC(c2ccccc2)C1` (stereo unspecified): the half-maximal activity concentration (AC50) under setting [2] is 20.6 µM [falling, partial curve, poor fit]. With `N#CC1(NC(=O)CSc2nnc(Nc3ccccc3F)s2)CCCC1`, the AC50 under setting [1] is 29.1 µM [rising, single point]. On the same count and under the same terms, next, `COc1cccc(Oc2coc3c(CN4CCOCC4)c(O)ccc3c2=O)c1`: 15.8 µM [rising, partial curve, poor fit]. On the same count and under the same terms, next, `COc1ccc(NC(=O)/C(Cl)=C(/Cl)S(=O)(=O)Cc2ccc(C)cc2)cn1`: 2.31 µM [falling, full curve, poor fit]. Same read-out and setting: as for `O=C(NC1CCCC1)c1ccc(CN2CCOCC2)cc1`, the figure is 6.51 µM [falling, single point]. Turning to `CCOc1ccc(-c2nc(CSc3nnc(C)s3)cs2)cc1OC`, the AC50 under setting [1] is 6.51 µM [rising, partial curve, poor fit] and the AC50 under setting [2] is 11.6 µM [falling, partial curve, poor fit]. Turning to `Cc1ccc(NC(=O)COc2cccc(/C=C3\SC(=S)N(CCC(=O)O)C3=O)c2)cc1Cl`, the AC50 under setting [1] is 0.282 µM [falling, full curve]. Turning to `COc1cccc(/C=N/NC(=O)CCCc2ccc(OC)c(C)c2)c1`, under setting [1], the concentration at half-maximal activity (AC50) is 29.1 µM [rising, single point]. The same measure, in the same setting: as for `CCOC(=O)c1sc(=NC(=O)CCSc2ccccc2)n(C)c1C`, the figure is 2 µM [rising, partial curve]; as for `O=C(CN1CCOCC1)NCCC12CC3CC(CC(C3)C1)C2`, 23.1 µM [rising, single point]; as for `CC(=O)CC(=O)Nc1ccc(Cl)cn1`, 12.6 µM [falling, partial curve, poor fit].

In the case of `COc1ccc(OC)c(NC(=O)CSc2nncc3ccccc23)c1`, the AC50 under setting [1] is 35.5 µM [falling, partial curve, poor fit]. For the compound `Cc1ccc(C2CC(c3ccccc3)=NN2c2ccccc2)o1` (stereo unspecified), the AC50 under setting [1] was 13 µM [rising, partial curve, poor fit]. On the same count and under the same terms, next, `Cc1ccc(SCCC(=O)Nc2ccccc2C(=O)NC(C)C)cc1`: 29.1 µM [falling, single point].
